# Values from PubChem BioAssay AID1224826 (NIAID, 2016).
# Purpose: 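Knock-downs that raise or lower Tnf reporter signal after endotoxin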 (primary screen)
# Cell system: RAW264.7 G9 macrophages from mouse bearing reporters for p65 (GFP) and the Tnf promoter (mCherry)
# Knock-down reagent: siRNA pool against mouse genes, 100 nM
# Duration: 16 h of LPS stimulation, after 2 days of siRNA transfection
# Conditions: bacterial lipopolysaccharide (Salmonella minnesota R595), 10 ng/ml
# Measured: 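Nuclear mCherry signal of the Tnf promoter reporter measured by imaging after background removal, scaled to each plate median and turned into robust z-scores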
# Scale: Tnf reporter robust z-score: higher = stronger Tnf promoter reporter signal after LPS; Tnf reporter intensity: higher = stronger Tnf promoter reporter signal
# Active means: 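a well counts as active at a score of -1.3 or below (Tlr4 knock-down control median) or above 3 (raised signal); controls and wells holding fewer than 50 cells are excluded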
# Calls: active = Tnf reporter clearly lowered or raised; inactive = no clear change in Tnf reporter
# Shown is a random part of about 17,000 reagents. Over the whole deposit, about 1,110 (6.6%) were called active. 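Active means lowered or raised reporter signal; replicate intensities are raw and not normalised per plate.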 Some reagents were tested in more than one well and are listed for each. Further read-outs or replicates are left out here.
gene,Tnf reporter robust z-score,fewer than 50 cells in well,"Tnf reporter intensity, replicate 1",outcome
Chia1,1.75,enough cells in well,266,inactive
Dpf2,1.08,enough cells in well,305,inactive
Sds,1.66,enough cells in well,219,inactive
Grin2d,0.71,enough cells in well,350,inactive
Or8b50,,fewer than 50 cells per well; well left out of calls,75.4,inactive
Setdb1,-0.63,enough cells in well,253,inactive
Stk11,0.42,enough cells in well,200,inactive
Pkp2,-1.62,enough cells in well,73.8,active
Psme3,-1.94,enough cells in well,52.8,active
Nudt15,-0.29,enough cells in well,199,inactive
Wfdc5,-0.66,enough cells in well,164,inactive
Reg1,-1.52,enough cells in well,105,active
Plk4,-0.06,enough cells in well,196,inactive
Taar8b,0.61,enough cells in well,270,inactive
Gorab,1.48,enough cells in well,319,inactive

Entries listed so far whose gene name starts with G or g:
gene,Tnf reporter robust z-score,fewer than 50 cells in well,"Tnf reporter intensity, replicate 1",outcome
Grin2d,0.71,enough cells in well,350,inactive
Gorab,1.48,enough cells in well,319,inactive

Additional records follow.
gene,Tnf reporter robust z-score,fewer than 50 cells in well,"Tnf reporter intensity, replicate 1",outcome
A330008L17Rik,-0.48,enough cells in well,144,inactive
Caprin1,1.91,enough cells in well,398,inactive
Crybb2,-0.87,enough cells in well,154,inactive
Defb1,-1.7,enough cells in well,90.8,active
Cdk19,0.15,enough cells in well,168,inactive
Cdk19,0.23,enough cells in well,279,inactive
Kctd18,0.06,enough cells in well,201,inactive
Rab18,0.11,enough cells in well,297,inactive
Tas2r129,4.8,enough cells in well,300,active
